*: point of attachment. FITC = O=C1OC2(c3ccc(O)cc3Oc3cc(O)ccc32)c2ccc(NC(=S)*)cc21; Ahx = NCCCCCC(=O)O
Test: general procedure: Fmoc solid-phase peptide synthesis; 2-chlorotityl-N-Fmoc-hydroxylamine resin (0.69 mmol/g); Sieber amide resin; HCTU/N,N-diisopropylethylamine; HBTU/N,N-diisopropylethylamine
Conditions: whole synthesis; for final HPLC purity: analytical reverse-phase HPLC and LC-MS

Substance | isolated yield [%] | final HPLC purity [% purity]
Ac-Lys-Gly-Gly-Ala-Hao-Arg-His-NH2 | 1 | 91
FITC-Ahx-Lys-Gly-Gly-Ala-Hao-Arg-His-NH2 | 20 | 95
FITC-Ahx-Ser-Glu-Arg-Gly-Lys(Ac)Gly-GLy-Lys-NH2 | 10 | 91
{FITC-Ahx}-KAARK(Ac)SA-NH2 | 14 | 98
{FITC-Ahx}-KGGAK(Ac)RH-NH2 | 33 | >99
{FITC-Ahx}-TARK(Ac)STG-NH2 | 17 | 98
{FITC-Ahx}-TGGK(Ac)APR-NH2 | 16 | 98

Reference: paper PMC4848466 (Nature Communications, 2016)
